Data from PubChem BioAssay AID1794845 (National Center for Advancing Translational Sciences (NCATS), 2023).
Among all 6,900 compounds or so, fewer than 10 were called active. The call rests on the fitted dose curve; in most records, active means well fitted curve in the direction sought with a large enough effect; inconclusive means small, poorly fitted or top-dose-only effect, or another doubt; inactive means no such curve, though single readings can be large or run the other way. Some of the results follow.

Chains of the proteins cited; added tags and fusions are not shown. Lines headed by an entry give the natural chain unless they say otherwise; changes in a name come on top.
UniProt C7C422: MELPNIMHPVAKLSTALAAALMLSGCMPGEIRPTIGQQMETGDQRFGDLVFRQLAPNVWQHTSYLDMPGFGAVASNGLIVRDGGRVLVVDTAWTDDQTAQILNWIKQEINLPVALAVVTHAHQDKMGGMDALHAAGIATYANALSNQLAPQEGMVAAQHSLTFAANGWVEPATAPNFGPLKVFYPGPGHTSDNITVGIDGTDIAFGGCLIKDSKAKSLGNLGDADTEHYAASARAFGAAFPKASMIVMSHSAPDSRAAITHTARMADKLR

target: Metallo-beta-lactamase type 2 (Klebsiella pneumoniae) (UniProt C7C422); assay: qHTS to identify inhibitors of the New Delhi Metallo-beta-lactamase (NDM): primary screen against the NCATS Gemini Collection; conditions: NDM-1 enzyme, meropenem hydrolysis, absorbance 300 nm; at 38.4 µM (top of the series) unless noted; further: % of control where 0% means no effect
Summary of the method: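 Meropenem hydrolysis (50 uM final) by 2 nM NDM-1 read as 300 nm absorbance after 30 min, following >30 min compound–enzyme preincubation in HEPES pH 7.0 with 1 uM ZnSO4 and 0.01% Tween20.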

Activity % (negative = inhibition), inactive:
O=C(NCc1ccc(F)c(F)c1)C1CN(C2CCCC2)C(=O)N1 (centres undefined) 7.46% [at 57.5 µM]
COCCOc1cc(-c2noc([C@@H]3CCCN3C3CCN(C(C)=O)CC3)n2)ccn1 2.93% [at 57.5 µM]
COCC(=O)N[C@H]1C[C@@H](CO)N(Cc2scnc2C)C1 1.25%
O=C(c1cc(-c2cccnc2)c2nncn2n1)N1CCOCC1 9.61%
CC(C)n1cc(-c2cc(C(=O)N(C)Cc3cccnc3)c3cc(F)ccc3n2)cn1 -0.153%
O=C(O)CO[C@@H]1COCC[C@H]1NC(=O)c1cc2c(s1)CCCCC2 16.1%
COCc1nc(CCNC(=O)NCCc2ccccc2)no1 -3.25%
O=C(c1ccon1)N1CCN(Cc2cnn3cccnc23)CC(O)C1 (centres undefined) 1.39%
COCCOCc1nc(C2CCCN2S(=O)(=O)Cc2ccccc2)no1 (centres undefined) -3.89%
CCCC1(CO)CCCN(Cc2nnc(-c3cccc(F)c3)o2)C1 (centres undefined) 6.36%
Cn1c(C(=O)NCCN2CCCCC2)cc2c1CCN(Cc1cccc(F)c1)C2 0.485%
Cc1ccccc1C(=O)N1C(C(=O)NCc2ccccc2)COC12CCN(C(=O)c1ccco1)CC2 (centres undefined) 0.886%
COCc1nc(CCNC(=O)NC2CCCCC2)no1 0.875%
COc1ccc(NC(=O)N2CCCC(CN3CCC(C)CC3)CC2)cc1 (centres undefined) 0.0571%
COc1ccc(-c2nc(N3CCOCC3)cc3c2CN(Cc2ccccc2)C3=O)cn1 2.36% [at 57.5 µM]
COc1ccc(CNc2cc3c(cn2)CN(Cc2ccccc2)CCN3)cc1OC 2.49% [at 57.5 µM]
O=C(c1ccncc1)N1CC2CCC(C1)N2Cc1ccc(-c2cccs2)cc1 6.08%
Cc1ccc(CS(=O)(=O)NC2CCc3n[nH]c(=O)n3CC2)cc1C (centres undefined) 0.0609%
COc1ccc(CCc2nc(-c3nnn4c3COC(c3ccc(Cl)cc3)C4)no2)cc1 (centres undefined) 2%
O=C(c1ccccc1)N1CCC(Oc2cccc(F)c2)(C(=O)O)CC1 16.9%
COCCN[C@H]1[C@@H]2OC[C@@H](O2)[C@@H](NC(=O)Nc2ccc(OC)cc2)[C@@H]1O 18.9% [at 57.5 µM]
O=C(CCn1ccn2nc3c(c2c1=O)CCCC3)Nc1ccc(F)cc1F 5.61%
CCN1CCC(CC(=O)N2CCC(C3CCN(C(=O)NC)CC3)C2)CC1 (centres undefined) 26.7%
CNc1ccc(C)cc1C(=O)N1CCN(C)C2(CCN(C)CC2)C1 2.68%
CN(C)C(=O)c1n[nH]c2c1CN(C(=O)c1ccccc1Br)CC2 13.8%
C#CCN(Cc1ccco1)Cc1cnc(S(C)(=O)=O)n1CCCc1ccccc1 11.4%
O=c1[nH]c(C2CCCN(Cc3cccc(Cl)c3)C2)nc2ccc(F)cc12 (centres undefined) -0.201%
COc1cccc(-c2ccc(CN3CCCC(NC(=O)c4ccc(Cl)cc4)C3)cc2)c1 (centres undefined) 1.24%
COCC(=O)N1CC(C(=O)NCCc2ccc(OC)cc2)CC(c2ccc(F)c(C)c2)C1 (centres undefined) 46.5%
CN1CCN(Cc2ncc[nH]2)CC12CCC(=O)N(CC(=O)O)CC2 (centres undefined) 0.956%
O=C(CCc1nc2ccccc2s1)NC1CCc2n[nH]c(=O)n2CC1 (centres undefined) -0.309%
CCN1CCC2(CCC1=O)CN(c1ncnc3c1CCC3)CCN2C (centres undefined) 0.0459%
CN(C)c1nccnc1OC1CCN(S(=O)(=O)c2ccccc2)C1 (centres undefined) 22.2%
CN1C(=O)C(c2ccccc2)CC12CCN(c1ccnc(N)n1)CC2 (centres undefined) 0.39%
C[S+](=O)([O-])N1CC2(Cc3ccccc3N(C(=O)Cc3ccc(F)cc3)C2)C1 11.3%
CCC(C)NC(=O)c1cccc(-c2ccc(OC)nn2)c1 (centres undefined) 2.77% [at 57.5 µM]
COc1cccc(CNC(=O)N[C@@H]2CN(c3ncccn3)C[C@H]2CN(C)C)c1 0.336%
Cc1nn(C)c(C)c1S(=O)(=O)N1CCC(c2noc(-c3ccccc3)n2)C1 (centres undefined) -4.82%
CN(C)CCO[C@H]1C[C@@H](O)C12CCN(C(=O)Cc1ccc3ccccc3c1)CC2 89.9%
O=C(N[C@H]1CCN2C(=O)N(c3cccc(C(F)(F)F)c3)C(=O)[C@@H]2C1)c1ccncc1 18.7% [at 57.5 µM]
COC(=O)CNC(=O)c1nc(-c2ccc(Cl)cc2)c2ccccn12 17.1% [at 57.5 µM]
Cc1ccc(CCNC(=O)C2CCN(c3cc(C(F)(F)F)ncn3)CC2)cc1 15.7%
CCn1nc(C(=O)N2C[C@@H](CN3CCN(C)CC3)[C@@H](CO)C2)cc1C -0.228%
CC(C)c1noc([C@@H]2Cc3nc[nH]c3CN2C(=O)CC(C)(C)CC(=O)O)n1 13.7% [at 57.5 µM]
CC(=O)N1CCc2sc(C(=O)NC3CCN(Cc4ccccc4)CC3)cc2C1 -0.293%
CC(C)N1Cc2cc(C(=O)NC3CCN(Cc4ccccc4)CC3)sc2C1 -0.112%
COC(=O)C1=CN(CC(=O)N2CCN(c3ccc(F)cc3)CC2)S(=O)(=O)N=C1C -0.268%
Cc1cc2nc3n(c(=O)c2n1CC(=O)NC1CCc2ccccc21)CCCCC3 (centres undefined) -1.38%
CC(C)CN(Cc1cccnc1)C1CN(C(=O)CCc2nc3ccccc3s2)C1 -0.295%
CCN1c2cc(C(=O)NCCc3ccccc3)ccc2C(=O)N2CCCCC21 (centres undefined) 5.51%
COC[C@@H]1CN(S(=O)(=O)c2ccc(C)cc2)C[C@H]1c1ccncc1 8.01%
O=C1COc2ccc(-c3ccoc3)nc2CN1Cc1ccccc1 24.4% [at 57.5 µM]
CCN1CCC2(CCC1=O)CN(Cc1nc(C(=O)NC)no1)CCN2C (centres undefined) 0.0905%
COc1ccc(CN2CCc3nc(C(=O)NCCOc4ccccc4)oc3CC2)cn1 14.7% [at 57.5 µM]

Four compounds already listed, ordered by heavy-atom count, falling:
Activity % (negative = inhibition), inactive:
CN(C)CCO[C@H]1C[C@@H](O)C12CCN(C(=O)Cc1ccc3ccccc3c1)CC2 89.9%
C[S+](=O)([O-])N1CC2(Cc3ccccc3N(C(=O)Cc3ccc(F)cc3)C2)C1 11.3%
COCCOCc1nc(C2CCCN2S(=O)(=O)Cc2ccccc2)no1 (centres undefined) -3.89%
COC[C@@H]1CN(S(=O)(=O)c2ccc(C)cc2)C[C@H]1c1ccncc1 8.01%
